No constants are given. Whether binding was seen depends on the method and setting. Some entries that bind do so weakly or less than the wild type.

Sequences of proteins named here, by UniProt entry; tags and fusion partners are left off. Residues count along the entry.
UniProt Q07954, residues 20-4544: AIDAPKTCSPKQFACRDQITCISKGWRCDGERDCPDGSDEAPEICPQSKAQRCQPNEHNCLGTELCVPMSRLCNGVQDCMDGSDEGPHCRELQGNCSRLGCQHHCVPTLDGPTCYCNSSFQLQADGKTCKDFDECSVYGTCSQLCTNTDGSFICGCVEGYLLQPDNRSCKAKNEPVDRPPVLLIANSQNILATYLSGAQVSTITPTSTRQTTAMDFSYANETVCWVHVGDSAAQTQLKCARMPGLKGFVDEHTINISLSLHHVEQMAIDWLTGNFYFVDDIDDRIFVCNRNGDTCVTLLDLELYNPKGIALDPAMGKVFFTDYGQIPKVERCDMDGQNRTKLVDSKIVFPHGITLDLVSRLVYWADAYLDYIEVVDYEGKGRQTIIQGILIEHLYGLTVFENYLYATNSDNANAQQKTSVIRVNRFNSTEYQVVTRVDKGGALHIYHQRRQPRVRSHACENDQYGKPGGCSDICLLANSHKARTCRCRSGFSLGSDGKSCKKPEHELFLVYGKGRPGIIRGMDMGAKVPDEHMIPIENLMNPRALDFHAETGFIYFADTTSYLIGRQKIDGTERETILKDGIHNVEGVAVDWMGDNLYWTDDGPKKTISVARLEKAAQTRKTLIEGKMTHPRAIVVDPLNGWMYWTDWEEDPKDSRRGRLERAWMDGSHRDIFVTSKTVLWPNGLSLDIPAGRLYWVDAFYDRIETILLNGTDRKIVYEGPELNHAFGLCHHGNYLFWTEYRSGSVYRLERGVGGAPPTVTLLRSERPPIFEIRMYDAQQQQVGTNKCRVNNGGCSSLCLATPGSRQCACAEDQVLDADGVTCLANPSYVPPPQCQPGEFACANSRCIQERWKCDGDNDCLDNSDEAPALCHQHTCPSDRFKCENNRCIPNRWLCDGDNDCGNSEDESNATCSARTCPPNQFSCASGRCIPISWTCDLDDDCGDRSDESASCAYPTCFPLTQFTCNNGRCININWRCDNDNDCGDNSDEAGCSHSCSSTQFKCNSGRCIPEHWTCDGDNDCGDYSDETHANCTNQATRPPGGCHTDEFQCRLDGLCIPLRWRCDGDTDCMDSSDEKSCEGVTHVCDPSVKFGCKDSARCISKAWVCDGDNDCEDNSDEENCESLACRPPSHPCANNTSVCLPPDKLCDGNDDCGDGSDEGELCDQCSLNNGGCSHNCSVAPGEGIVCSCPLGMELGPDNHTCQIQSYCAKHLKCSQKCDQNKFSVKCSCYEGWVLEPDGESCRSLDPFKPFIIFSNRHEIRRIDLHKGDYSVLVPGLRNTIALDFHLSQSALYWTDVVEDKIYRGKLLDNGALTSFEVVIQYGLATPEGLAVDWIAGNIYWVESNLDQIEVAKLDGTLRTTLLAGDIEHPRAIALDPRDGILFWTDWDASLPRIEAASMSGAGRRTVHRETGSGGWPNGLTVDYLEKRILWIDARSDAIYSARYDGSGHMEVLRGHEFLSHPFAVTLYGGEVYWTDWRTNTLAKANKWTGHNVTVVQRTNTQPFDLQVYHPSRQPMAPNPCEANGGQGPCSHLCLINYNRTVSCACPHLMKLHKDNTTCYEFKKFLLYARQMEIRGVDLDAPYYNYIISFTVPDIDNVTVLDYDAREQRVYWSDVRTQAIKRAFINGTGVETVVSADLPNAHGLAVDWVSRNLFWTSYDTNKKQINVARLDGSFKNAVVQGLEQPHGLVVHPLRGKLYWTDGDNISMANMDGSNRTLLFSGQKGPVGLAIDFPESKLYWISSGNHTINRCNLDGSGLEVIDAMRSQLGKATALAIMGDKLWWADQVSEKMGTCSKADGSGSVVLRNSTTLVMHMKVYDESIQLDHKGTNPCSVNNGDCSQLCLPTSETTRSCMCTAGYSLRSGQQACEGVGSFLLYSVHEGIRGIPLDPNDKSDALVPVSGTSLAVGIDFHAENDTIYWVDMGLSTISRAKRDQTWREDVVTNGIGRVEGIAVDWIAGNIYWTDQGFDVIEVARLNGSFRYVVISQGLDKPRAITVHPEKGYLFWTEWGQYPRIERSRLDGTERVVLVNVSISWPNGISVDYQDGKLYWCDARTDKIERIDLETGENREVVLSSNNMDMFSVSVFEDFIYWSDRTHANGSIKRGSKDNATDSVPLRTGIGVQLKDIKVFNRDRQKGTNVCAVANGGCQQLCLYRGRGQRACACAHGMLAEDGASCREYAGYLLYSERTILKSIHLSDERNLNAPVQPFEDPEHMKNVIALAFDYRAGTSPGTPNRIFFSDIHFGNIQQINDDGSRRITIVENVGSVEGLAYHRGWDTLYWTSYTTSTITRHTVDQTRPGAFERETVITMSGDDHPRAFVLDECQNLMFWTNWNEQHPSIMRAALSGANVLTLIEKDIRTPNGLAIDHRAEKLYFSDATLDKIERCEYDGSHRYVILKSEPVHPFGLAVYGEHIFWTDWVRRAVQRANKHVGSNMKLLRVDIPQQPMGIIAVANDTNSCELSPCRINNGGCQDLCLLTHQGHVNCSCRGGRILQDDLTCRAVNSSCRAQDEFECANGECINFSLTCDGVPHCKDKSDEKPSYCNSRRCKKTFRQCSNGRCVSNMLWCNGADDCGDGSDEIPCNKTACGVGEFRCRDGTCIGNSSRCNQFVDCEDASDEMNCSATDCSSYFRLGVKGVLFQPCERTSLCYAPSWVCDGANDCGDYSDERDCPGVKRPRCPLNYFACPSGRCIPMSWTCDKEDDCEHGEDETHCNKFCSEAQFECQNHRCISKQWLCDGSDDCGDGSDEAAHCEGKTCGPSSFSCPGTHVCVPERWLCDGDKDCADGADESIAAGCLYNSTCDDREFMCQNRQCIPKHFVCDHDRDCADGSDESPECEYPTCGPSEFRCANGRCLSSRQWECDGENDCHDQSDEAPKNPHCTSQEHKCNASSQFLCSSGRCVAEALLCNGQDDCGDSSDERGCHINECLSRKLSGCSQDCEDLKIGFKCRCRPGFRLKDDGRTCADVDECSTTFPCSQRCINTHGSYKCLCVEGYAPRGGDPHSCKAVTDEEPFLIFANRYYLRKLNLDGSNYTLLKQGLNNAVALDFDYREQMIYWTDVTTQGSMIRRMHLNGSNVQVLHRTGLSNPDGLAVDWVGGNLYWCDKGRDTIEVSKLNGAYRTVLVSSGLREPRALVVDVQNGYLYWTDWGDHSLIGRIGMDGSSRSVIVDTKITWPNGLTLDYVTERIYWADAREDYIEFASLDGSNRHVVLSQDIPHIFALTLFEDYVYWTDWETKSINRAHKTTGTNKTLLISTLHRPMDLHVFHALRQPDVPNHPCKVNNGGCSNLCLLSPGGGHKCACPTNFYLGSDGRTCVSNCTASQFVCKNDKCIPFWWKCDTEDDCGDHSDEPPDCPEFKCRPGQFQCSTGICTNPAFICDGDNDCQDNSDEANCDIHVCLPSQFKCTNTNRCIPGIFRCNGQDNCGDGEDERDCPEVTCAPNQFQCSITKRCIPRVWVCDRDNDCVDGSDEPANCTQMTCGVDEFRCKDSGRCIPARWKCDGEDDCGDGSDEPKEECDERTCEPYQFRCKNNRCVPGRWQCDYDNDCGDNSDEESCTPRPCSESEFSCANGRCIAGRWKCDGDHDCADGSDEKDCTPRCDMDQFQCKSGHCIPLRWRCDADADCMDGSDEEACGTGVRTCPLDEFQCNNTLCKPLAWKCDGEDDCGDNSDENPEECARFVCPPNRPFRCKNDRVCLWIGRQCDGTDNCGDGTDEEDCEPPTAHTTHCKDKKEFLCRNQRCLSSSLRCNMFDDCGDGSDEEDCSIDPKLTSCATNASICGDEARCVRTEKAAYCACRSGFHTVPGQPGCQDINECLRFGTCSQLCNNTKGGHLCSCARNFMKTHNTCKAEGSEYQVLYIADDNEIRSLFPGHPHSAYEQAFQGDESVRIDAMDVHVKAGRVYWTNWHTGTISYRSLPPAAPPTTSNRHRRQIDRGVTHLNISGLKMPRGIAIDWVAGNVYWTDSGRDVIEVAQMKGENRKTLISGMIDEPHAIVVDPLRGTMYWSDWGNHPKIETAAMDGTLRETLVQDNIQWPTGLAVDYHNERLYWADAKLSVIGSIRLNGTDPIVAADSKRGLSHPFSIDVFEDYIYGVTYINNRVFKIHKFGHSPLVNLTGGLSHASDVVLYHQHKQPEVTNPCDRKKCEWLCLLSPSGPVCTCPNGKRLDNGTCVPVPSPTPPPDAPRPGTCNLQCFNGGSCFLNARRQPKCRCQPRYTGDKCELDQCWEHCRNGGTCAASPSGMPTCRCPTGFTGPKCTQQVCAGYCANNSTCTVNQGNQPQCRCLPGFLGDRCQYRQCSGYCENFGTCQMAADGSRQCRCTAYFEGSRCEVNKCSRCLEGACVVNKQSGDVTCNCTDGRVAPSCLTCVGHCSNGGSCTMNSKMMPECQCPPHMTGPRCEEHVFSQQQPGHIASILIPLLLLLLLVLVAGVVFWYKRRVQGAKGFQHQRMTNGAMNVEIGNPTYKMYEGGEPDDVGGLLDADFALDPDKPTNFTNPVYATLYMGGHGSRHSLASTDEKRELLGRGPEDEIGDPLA

The text below walks through data of publication PMC1592478.

The target of this assay is low density lipoprotein receptor-related protein (LRP), endogenous on GM00701 human fibroblasts (human (endogenous in GM00701)) (UniProt Q07954). Kind of assay: radioligand binding; ^125I-α2M (1 μg/ml) on confluent GM00701 cells, 4°C, 3 h, 20 mM Hepes pH 7.4, 150 mM NaCl, 2 mM CaCl2, 1% BSA; without or with RAP-GST (50 μg/ml) or unlabeled α2M (10 μg/ml); scintillation counting of cells solubilized in 0.1 N NaOH; only the binder purified.

B1: Human α2-macroglobulin (α2M), methylamine-activated (ligand, UniProt P01023 24-1474)
chain: SVSGKPQYMVLVPSLLHTETTEKGCVLLSYLNETVTVSASLESVRGNRSLFTDLEAENDVLHCVAFAVPKSSSNEEVMFLTVQVKGPTQEFKKRTTVMVKNEDSLVFVQTDKSIYKPGQTVKFRVVSMDENFHPLNELIPLVYIQDPKGNRIAQWQSFQLEGGLKQFSFPLSSEPFQGSYKVVVQKKSGGRTEHPFTVEEFVLPKFEVQVTVPKIITILEEEMNVSVCGLYTYGKPVPGHVTVSICRKYSDASDCHGEDSQAFCEKFSGQLNSHGCFYQQVKTKVFQLKRKEYEMKLHTEAQIQEEGTVVELTGRQSSEITRTITKLSFVKVDSHFRQGIPFFGQVRLVDGKGVPIPNKVIFIRGNEANYYSNATTDEHGLVQFSINTTNVMGTSLTVRVNYKDRSPCYGYQWVSEEHEEAHHTAYLVFSPSKSFVHLEPMSHELPCGHTQTVQAHYILNGGTLLGLKKLSFYYLIMAKGGIVRTGTHGLLVKQEDMKGHFSISIPVKSDIAPVARLLIYAVLPTGDVIGDSAKYDVENCLANKVDLSFSPSQSLPASHAHLRVTAAPQSVCALRAVDQSVLLMKPDAELSASSVYNLLPEKDLTGFPGPLNDQDNEDCINRHNVYINGITYTPVSSTNEKDMYSFLEDMGLKAFTNSKIRKPKMCPQLQQYEMHGPEGLRVGFYESDVMGRGHARLVHVEEPHTETVRKYFPETWIWDLVVVNSAGVAEVGVTVPDTITEWKAGAFCLSEDAGLGISSTASLRAFQPFFVELTMPYSVIRGEAFTLKATVLNYLPKCIRVSVQLEASPAFLAVPVEKEQAPHCICANGRQTVSWAVTPKSLGNVNFTVSAEALESQELCGTEVPSVPEHGRKDTVIKPLLVEPEGLEKETTFNSLLCPSGGEVSEELSLKLPPNVVEESARASVSVLGDILGSAMQNTQNLLQMPYGCGEQNMVLFAPNIYVLDYLNETQQLTPEIKSKAIGYLNTGYQRQLNYKHYDGSYSTFGERYGRNQGNTWLTAFVLKTFAQARAYIFIDEAHITQALIWLSQRQKDNGCFRSSGSLLNNAIKGGVEDEVTLSAYITIALLEIPLTVTHPVVRNALFCLESAWKTAQEGDHGSHVYTKALLAYAFALAGNQDKRKEVLKSLNEEAVKKDNSVHWERPQKPKAPVGHFYEPQAPSAEVEMTSYVLLAYLTAQPAPTSEDLTSATNIVKWITKQQNAQGGFSSTQDTVVALHALSKYGAATFTRTGKAAQVTIQSSGTFSSKFQVDNNNRLLLQQVSLPELPGEYSMKVTGEGCVYLQTSLKYNILPEKEEFPFALGVQTLPQTCDEPKAHTSFQISLSVSYTGSRSASNMAIVDVKMVSGFIPLKPTVKMLERSNHVSRTEVSSNHVLIYLDKVSNQTLSLFFTVLQDVPVRDLKPAIVKVYDYYETDEFAIAEYNAPCSKDLGNA
modifications: activated with 0.4 M methylamine; ^125I label (Iodo-Beads)
Consider B1, for which the binding entry was “binds”.
